Here are results for one substance from PMC2982839.

Chains of the proteins cited; added tags and fusions are not shown.
UniProt Q6WKZ8: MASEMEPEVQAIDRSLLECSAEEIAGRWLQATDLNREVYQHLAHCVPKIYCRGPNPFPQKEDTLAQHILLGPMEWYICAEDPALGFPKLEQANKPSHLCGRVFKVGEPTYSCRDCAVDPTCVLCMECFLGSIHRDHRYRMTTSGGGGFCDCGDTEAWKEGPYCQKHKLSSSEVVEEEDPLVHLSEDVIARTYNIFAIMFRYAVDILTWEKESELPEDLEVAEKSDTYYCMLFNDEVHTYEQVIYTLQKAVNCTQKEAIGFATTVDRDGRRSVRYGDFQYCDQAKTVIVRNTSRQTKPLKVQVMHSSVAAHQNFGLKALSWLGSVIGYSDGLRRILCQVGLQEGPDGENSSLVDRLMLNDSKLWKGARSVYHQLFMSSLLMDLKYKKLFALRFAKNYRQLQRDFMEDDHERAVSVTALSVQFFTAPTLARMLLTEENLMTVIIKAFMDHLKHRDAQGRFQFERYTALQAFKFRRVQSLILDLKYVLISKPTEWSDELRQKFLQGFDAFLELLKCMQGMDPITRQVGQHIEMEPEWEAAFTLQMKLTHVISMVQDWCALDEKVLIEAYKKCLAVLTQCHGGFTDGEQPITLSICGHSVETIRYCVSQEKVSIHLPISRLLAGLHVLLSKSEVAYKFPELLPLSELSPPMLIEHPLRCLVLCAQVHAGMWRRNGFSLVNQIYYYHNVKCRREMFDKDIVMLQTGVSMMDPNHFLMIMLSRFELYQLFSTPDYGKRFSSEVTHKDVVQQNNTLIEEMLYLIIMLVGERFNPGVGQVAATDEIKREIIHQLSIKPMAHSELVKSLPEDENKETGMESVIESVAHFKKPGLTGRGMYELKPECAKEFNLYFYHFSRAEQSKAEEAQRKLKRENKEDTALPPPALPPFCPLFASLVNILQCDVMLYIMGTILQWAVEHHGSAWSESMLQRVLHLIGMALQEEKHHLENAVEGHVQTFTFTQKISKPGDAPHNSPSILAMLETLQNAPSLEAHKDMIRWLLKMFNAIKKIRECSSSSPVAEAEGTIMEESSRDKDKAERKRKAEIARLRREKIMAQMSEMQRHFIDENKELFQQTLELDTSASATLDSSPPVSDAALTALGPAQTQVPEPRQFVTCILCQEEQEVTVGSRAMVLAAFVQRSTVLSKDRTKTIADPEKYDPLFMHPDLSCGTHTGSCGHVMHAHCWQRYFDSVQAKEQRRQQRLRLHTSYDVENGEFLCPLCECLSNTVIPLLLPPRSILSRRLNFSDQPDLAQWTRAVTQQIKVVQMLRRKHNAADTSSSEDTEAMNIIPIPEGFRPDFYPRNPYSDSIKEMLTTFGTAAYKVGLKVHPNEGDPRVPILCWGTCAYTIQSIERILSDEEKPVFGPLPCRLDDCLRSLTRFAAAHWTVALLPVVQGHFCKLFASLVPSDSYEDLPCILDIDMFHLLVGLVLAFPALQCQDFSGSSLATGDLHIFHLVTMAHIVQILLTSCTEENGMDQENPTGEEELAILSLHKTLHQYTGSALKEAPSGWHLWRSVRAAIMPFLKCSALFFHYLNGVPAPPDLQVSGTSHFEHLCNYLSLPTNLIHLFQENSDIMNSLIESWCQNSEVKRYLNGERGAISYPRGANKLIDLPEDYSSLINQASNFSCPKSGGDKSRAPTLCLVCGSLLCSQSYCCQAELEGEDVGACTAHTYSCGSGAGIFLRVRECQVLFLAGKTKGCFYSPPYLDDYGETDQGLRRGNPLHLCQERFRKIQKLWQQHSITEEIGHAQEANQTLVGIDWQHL

This assay addresses T1, Tex19.1 (mouse (endogenous in testis)) (UniProt Q99MV2).
T1 sequence: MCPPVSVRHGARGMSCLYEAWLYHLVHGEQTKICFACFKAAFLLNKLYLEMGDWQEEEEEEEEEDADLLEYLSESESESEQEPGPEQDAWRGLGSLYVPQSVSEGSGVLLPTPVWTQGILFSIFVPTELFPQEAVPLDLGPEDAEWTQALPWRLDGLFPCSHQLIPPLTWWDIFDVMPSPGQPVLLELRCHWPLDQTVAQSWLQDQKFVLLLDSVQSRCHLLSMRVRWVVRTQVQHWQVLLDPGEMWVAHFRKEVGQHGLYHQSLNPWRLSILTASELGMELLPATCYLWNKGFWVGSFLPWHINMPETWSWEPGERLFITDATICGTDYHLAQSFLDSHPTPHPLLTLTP
Put plainly: affinity purification with mass spectrometry; IP with affinity-purified anti-Tex19.1 antibody from S100 testicular extracts of postnatal day 20 mice; washes with 250 mM NaCl, 0.1% NP-40, 0.05% deoxycholate; SDS-PAGE, SYPRO Ruby, bands cut out and identified by mass spectrometry; Tex19.1-/- testes in parallel.

Results are given in words; binding and its absence hold for the method and conditions named. Binding seen in cells or lysates may run through a third protein. Here binding means that the protein was enriched with, or labelled near, the bait; the list need not be complete.

Turning to Ubr2 (from UniProt Q6WKZ8 1-1755), the binding entry is given as “binds”.
